# From PubChem BioAssay AID720533 (National Center for Advancing Translational Sciences (NCATS), 2013)
# “And” between values parts separate entries of the source, which are not always exact repeats. Identical values can stand only once. The campaign covered roughly 18,000 compounds. About 750 (4.2%) were called active. The shares of active, inactive and inconclusive entries below differ from those in the screen. The call rests on the fitted dose curve; tested in HEK293 cells. Potencies beside an inconclusive call are fits to weak or partial responses and may not hold up. Non-standard residues stand in square brackets, D forms with d. Residues, ends and D or L forms follow the SMILES beside them. *: point of attachment. Fmoc = O=C(OCC1c2ccccc2-c2ccccc21)*; Cha = N[C@@H](CC1CCCCC1)C(=O)O; AMC = Cc1cc(=O)oc2cc(N*)ccc12
# Test: qHTS for Inhibitors of binding or entry into cells for Lassa Virus
# Conditions: Lassa virus pseudotyped entry inhibition, cell-based qHTS; activity change, negative = inhibition: at 49.2 µM (top of the series) unless noted
# On the % scale 0 is the no-effect control and ±100 the full control effect; potency means the concentration at half of the fitted maximal effect.
Structure (SMILES),Potency,"activity change, negative = inhibition"
COc1cc(OC)c2c(-c3cccc(-c4sccc4C(C)=O)c3)cc(=O)oc2c1,"inconclusive: 7.08 µM [inhibitor, partial curve]",
COc1c(O)cc2oc3cc(O)c(CC=C(C)C)c(O)c3c(=O)c2c1CC=C(C)C,"inconclusive: 11.2 µM [inhibitor, partial curve, poor fit] and inconclusive: 35.5 µM [inhibitor, single point] and inconclusive: 31.6 µM [inhibitor, partial curve, poor fit]",
Clc1cccc(SC2CCNCC2)n1,"inconclusive: 35.5 µM [inhibitor, single point]",
COc1cccc([C@@H]2Oc3ccc(OC)cc3C(=O)[C@H]2OC(=O)NCCOc2ccccc2)c1,inactive,
CN1C(=O)[C@@H](NC(=O)c2cc3ccccc3[nH]2)N=C(c2ccccc2)c2ccccc21,"inconclusive: 10 µM [inhibitor, partial curve]",
CC(C)=CCCC(C)=CC=CC1=CC2(C)CC1(C)C(C=C(C)CCC=C(C)C)CC2=O (configuration not stated),,inactive: 3.03% [at 8.59 µM]
CC(=O)[C@@]12C3[C@@H](CCN3C(=O)N[C@H]1c1ccccc1)[C@H]2c1ccccc1 (some centres not stated),,inactive: -4.41% [at 8.59 µM]
C[C@@H]1Cc2c(Cl)cc(C(=O)N[C@H](Cc3ccccc3)C(=O)O)c(O)c2C(=O)O1,"inconclusive: 20 µM [inhibitor, partial curve]",
O=C(CCCN1CCC(O)(c2cccc(C(F)(F)F)c2)CC1)c1ccc(F)cc1,"inconclusive: 31.6 µM [inhibitor, single point]",
CN(C)CCCn1cc(C2=C(c3c[nH]c4ccccc34)C(=O)NC2=O)c2ccccc21,"inconclusive: 35.5 µM [inhibitor, single point] and inconclusive: 31.6 µM [inhibitor, partial curve]",
CC[C@]1(O)CC2CN(CCc3c([nH]c4ccccc34)[C@@](C(=O)OC)(c3cc4c(cc3OC)N(C)[C@H]3[C@@](O)(C(N)=O)[C@H](O)[C@]5(CC)C=CCN6CC[C@]43[C@@H]65)C2)C1 (some centres not stated),inactive,
CCC(=O)OCC(=O)[C@@]1(OC(=O)CC)[C@@H](C)C[C@H]2[C@@H]3CCC4=CC(=O)C=C[C@]4(C)[C@@]3(Cl)[C@@H](O)C[C@@]21C,"inconclusive: 31.6 µM [inhibitor, partial curve]",
C=C(C)[C@]12C[C@@H](C)[C@@]34O[C@](Cc5ccccc5)(O[C@@H]1[C@@H]3C=C(COC(=O)Cc1ccc(O)c(OC)c1)C[C@]1(O)C(=O)C(C)=C[C@@H]41)O2,"inconclusive: 25.1 µM [inhibitor, single point]",
CC(=O)N[C@H]1C(O[C@@H]2O[C@H](C[C@@H](O)[C@H]3O[C@@H](N4CCC(=O)NC4=O)[C@H](O)[C@@H]3O)[C@H](O)[C@H](O)[C@H]2NC(=O)/C=C/CCCCCCCCCCC(C)C)OC(CO)[C@@H](O)[C@@H]1O (some centres not stated),"inconclusive: 2.51 µM [inhibitor, full curve]",
COCC(=O)O[C@]1(CCN(C)CCCc2nc3ccccc3[nH]2)CCc2cc(F)ccc2[C@@H]1C(C)C,active: 6.31 µM and active: 20 µM,
COC(=O)Nc1nc2ccc(S(=O)(=O)c3ccc(NC(=O)Nc4cc(C(F)(F)F)ccc4F)cc3)cc2[nH]1,inactive,

Structure (SMILES),Potency,"activity change, negative = inhibition"
CCN(CC)Cc1cc(Nc2ccnc3cc(Cl)ccc23)ccc1O,"inconclusive: 14.1 µM [inhibitor, single point]",
O=[N+]([O-])c1cc2nc(O)c(O)nc2cc1[N+](=O)[O-],"inconclusive: 12.6 µM [inhibitor, single point]",
CC(=O)[O][Sn]([c]1ccccc1)([c]1ccccc1)[c]1ccccc1,"inconclusive: 0.794 µM [inhibitor, full curve]",
CC(C)(CO)Cc1cc(C(C)(C)C)c(O)c(C(C)(C)C)c1,"inconclusive: 28.2 µM [inhibitor, single point]",
COc1ccc(-c2cc(=O)c3c(OC)c(OC)c(OC)cc3o2)cc1OC,"inconclusive: 35.5 µM [inhibitor, single point]",
COc1ccc(C2NC(=S)N3C(c4ccc(OC)c(OC)c4)NC(=S)N23)cc1OC (configuration not stated),"inconclusive: 25.1 µM [inhibitor, partial curve, poor fit]",
COc1c(C(N)=O)cc(-c2ccc(Cl)cc2)cc1-c1ccc(S(N)(=O)=O)cc1,"inconclusive: 25 µM [inhibitor, partial curve, poor fit]",
CCOC(=O)Nc1ccc(NCc2ccc(F)cc2)nc1N,"inconclusive: 14.1 µM [inhibitor, partial curve] and inconclusive: 22.4 µM [inhibitor, partial curve]",
Cc1cc(C(=O)NCc2nc(-c3cccc(NC(=O)c4cc(C)oc4C)c3)oc2C)nc(C)n1,"inconclusive: 8.91 µM [inhibitor, partial curve]",
CC(C)=CCC1C(=O)N(c2ccccc2)N(c2ccccc2)C1=O,"inconclusive: 31.6 µM [inhibitor, partial curve, poor fit]",
C=C(CO[C@@H]1C=C[C@@H](c2ccccc2)O[C@@H]1COC)c1ccccc1,,inactive: 8.58% [at 8.59 µM]
CCCSc1cc(OC)c(CCN)cc1OC,"inconclusive: 7.94 µM [inhibitor, full curve, poor fit]",
CC1C=C[C@@H]2[C@H](C1)C(=O)N(Cc1ccccc1)[C@H]2c1ccccc1Br (some centres not stated),"inconclusive: 20 µM [inhibitor, partial curve]",
CC1(C)CC[C@]2(C(=O)O)CC[C@]3(C)C(=CCC4[C@@]5(C)CC[C@H](O)C(C)(C)[C@@H]5CC[C@]43C)C2C1 (some centres not stated),"inconclusive: 10 µM [inhibitor, full curve, poor fit]",
CC[C@@]12CCCN3CCc4c(n(c5ccccc45)[C@](O)(C(=O)OC)C1)[C@H]32,inactive,
Cc1cc(=O)oc2cc(NC(=O)[C@H](CCCCN)NC(=O)[C@H](CC3CCCCC3)NC(=O)OCC3c4ccccc4-c4ccccc43)ccc12 (Fmoc-[Cha]-Lys-{AMC}),"inconclusive: 3.16 µM [inhibitor, full curve]",
